According to patent publication US20120213844A1:
These are yes or no findings as the source states them, for the method shown. Some binding calls cover weakened binding; strength is not graded here.

Protein sequences, listed by entry. Tags and fused reporters are not part of them. Lines headed by an entry give the natural chain unless they say otherwise; changes in a name come on top.
UniProt P01133: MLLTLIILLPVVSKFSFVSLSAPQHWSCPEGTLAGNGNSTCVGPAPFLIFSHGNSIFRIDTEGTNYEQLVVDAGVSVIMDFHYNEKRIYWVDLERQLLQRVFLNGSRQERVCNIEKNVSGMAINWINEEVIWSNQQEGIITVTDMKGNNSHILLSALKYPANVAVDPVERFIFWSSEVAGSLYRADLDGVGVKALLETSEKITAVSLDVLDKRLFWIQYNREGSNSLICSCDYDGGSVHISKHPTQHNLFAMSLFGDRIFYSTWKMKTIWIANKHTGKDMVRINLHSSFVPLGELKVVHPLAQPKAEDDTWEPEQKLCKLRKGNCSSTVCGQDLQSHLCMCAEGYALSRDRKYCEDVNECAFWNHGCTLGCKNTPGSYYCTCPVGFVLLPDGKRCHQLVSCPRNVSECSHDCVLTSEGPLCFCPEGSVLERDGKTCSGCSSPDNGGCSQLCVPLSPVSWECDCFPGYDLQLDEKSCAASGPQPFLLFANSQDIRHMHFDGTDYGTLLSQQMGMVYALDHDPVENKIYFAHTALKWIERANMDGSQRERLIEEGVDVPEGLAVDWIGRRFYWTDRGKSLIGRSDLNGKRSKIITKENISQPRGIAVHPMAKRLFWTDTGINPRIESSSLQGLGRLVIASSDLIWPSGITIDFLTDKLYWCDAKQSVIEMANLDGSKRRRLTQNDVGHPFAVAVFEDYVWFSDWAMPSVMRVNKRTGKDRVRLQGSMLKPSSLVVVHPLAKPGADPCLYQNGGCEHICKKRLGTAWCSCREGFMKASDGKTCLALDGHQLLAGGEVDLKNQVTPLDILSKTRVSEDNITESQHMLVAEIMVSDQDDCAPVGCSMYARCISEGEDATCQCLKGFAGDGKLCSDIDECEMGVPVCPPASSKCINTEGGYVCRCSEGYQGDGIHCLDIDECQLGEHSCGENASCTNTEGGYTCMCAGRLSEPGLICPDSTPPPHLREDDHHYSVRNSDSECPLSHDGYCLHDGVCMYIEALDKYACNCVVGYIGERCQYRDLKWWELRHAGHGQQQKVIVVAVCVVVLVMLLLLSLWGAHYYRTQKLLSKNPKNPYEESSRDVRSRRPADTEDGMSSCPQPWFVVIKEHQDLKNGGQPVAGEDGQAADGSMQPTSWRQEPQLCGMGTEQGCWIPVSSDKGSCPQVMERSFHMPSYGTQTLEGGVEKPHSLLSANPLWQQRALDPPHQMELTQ

Columns and labels:
[1] = target: biotinylated sEGFR-His6 (human) (UniProt P00533); assay: phage ELISA, biotinylated sEGFR-His6 on streptavidin
[2] = target: biotinylated sEGFR-His6 (human) (UniProt P00533); assay: phage ELISA; biotinylated receptor captured on streptavidin-coated wells
[3] = target: biotinylated strepII-tagged sEGFR (human) (UniProt P00533); assay: as above
[4] = target: biotinylated sEGFR-MMB (human); assay: as above
[5] = target: sEGFR-MMB (dimeric sEGFR mimetibody) (human); assay: phage ELISA with or without EGF 10 ug/ml (FIG. 5)
[6] = target: sEGFR-MMB (dimeric sEGFR mimetibody) (human); assay: phage ELISA on coated sEGFR-MMB
[7] = target: biotinylated sEGFR-His6 (human) (UniProt P00533); assay: phage ELISA, biotinylated receptor on streptavidin (FIG. 6)
[8] = target: biotinylated strepII-tagged sEGFR (human) (UniProt P00533); assay: as above
[9] = target: biotinylated sEGFR-MMB (human); assay: as above
[10] = target: sEGFR-MMB (dimeric sEGFR mimetibody) (human); assay: phage ELISA on coated sEGFR-MMB; EGF 10 ug/ml as competitor in the second bar
[11] = target: biotinylated sEGFR-MMB (human); assay: phage ELISA, biotinylated sEGFR-MMB captured on streptavidin
[12] = target: sEGFR-MMB (dimeric sEGFR mimetibody) (human); assay: phage ELISA, sEGFR-MMB passively coated
[13] = target: biotinylated sEGFR-His6 (human) (UniProt P00533); assay: phage ELISA, biotinylated sEGFR-His6 captured on streptavidin
[14] = target: biotinylated sEGFR-His6 (human) (UniProt P00533); assay: phage ELISA
[15] = target: sEGFR-MMB (dimeric sEGFR mimetibody) (human); assay: phage ELISA
[16] = target: sEGFR-MMB (dimeric sEGFR mimetibody) (human); assay: competitive phage ELISA on coated sEGFR-MMB; competitor TGF-alpha (10 ug/ml by paragraph 159) [panel D]
[17] = target: sEGFR-MMB (dimeric sEGFR mimetibody) (human); assay: competitive phage ELISA on coated sEGFR-MMB; competitor EGF (10 ug/ml by paragraph 159) [panel B]
[18] = target: biotinylated sEGFR-His6 (human) (UniProt P00533); assay: phage ELISA; biotinylated receptor captured on streptavidin [panel C]
[19] = target: biotinylated sEGFR-MMB (human); assay: as above
[20] = target: sEGFR-MMB (dimeric sEGFR mimetibody) (human); assay: competitive phage ELISA on coated sEGFR-MMB; competitor cetuximab (10 ug/ml by paragraph 159) [panel E]
[21] = target: sEGFR-MMB (dimeric sEGFR mimetibody) (human); assay: phage ELISA on coated sEGFR-MMB, Control-MMB as control coat [panel A]
[22] = target: sEGFR-MMB (dimeric sEGFR mimetibody) (human); assay: ELISA on immobilized sEGFR-MMB, linear concentration axis
[23] = target: complex of EGF and sEGFR-MMB (human) (UniProt P01133); assay: phage ELISA, coated sEGFR-MMB with EGF
[24] = target: complex of EGF and sEGFR-MMB (human) (UniProt P01133); assay: phage ELISA, coated sEGFR-MMB with EGF added
[25] = target: sEGFR-MMB (dimeric sEGFR mimetibody) (human); assay: phage ELISA, coated sEGFR-MMB
[26] = target: Human extracellular EGFR-His6 (sEGFR-His6) (human) (UniProt P00533); assay: phage ELISA, coated sEGFR-His6

Measured: binding

AGVLCSNFYHPLCHSGG (peptide, not shown: large carriers) [phage clone P143 (SEQ ID NO: 6)]
binds: [1] | [2] | [3] | [4] | [5] | [6] | [7] | [8] | [9] | [10]

AGVLCHRYYHPICYTGG (peptide, not shown: large carriers) [phage clone P145 (SEQ ID NO: 7)]
binds: [1] | [2] | [3] | [4] | [11] | [5] | [6] | [12] | [7] | [8] | [9] | [13] | [10]

AGTLCRSFFHPLCYAGG (peptide, not shown: large carriers) [phage clone P146 (SEQ ID NO: 8)]
binds: [1] | [2] | [3] | [4] | [5] | [6] | [7] | [8] | [9] | [10]

GGGSGCLDALWQCVYGGGSGGSGG (peptide, not shown: large carriers) [phage clone P174 (SEQ ID NO: 51)]
binds: [14] | [15] | [16] | [17] | [18] | [19] | [20] | [11] | [12] | [21] | [13]

GGGLPDDSLPELICKVRGGGGSGGSGG (peptide, not shown: large carriers) [phage clone P175 (SEQ ID NO: 13)]
binds: [15] | [16] | [17] | [19] | [20] | [11] | [12] | [21]

GGGKTCVSTTFDLWFVCFAGGGSGGSGG (peptide, not shown: large carriers) [phage clone P176 (SEQ ID NO: 48)]
binds: [14] | [15] | [16] | [17] | [18] | [19] | [20] | [11] | [12] | [21] | [13]

B1: P190-MMB construct 4314 (Fc fusion)
chain: GGDPCTWEVWGRECLQGGGSCPPCPAPEAAGGPSVFLFPPKPKDTLMISRTPEVTCVVVDVSQEDPEVQFNWYVDGVEVHNAKTKPREEQFNSTYRVVSVLTVLHQDWLNGKEYKCKVSNKGLPSSIEKTISKAKGQPREPQVYTLPPSQEEMTKNQVSLTCLVKGFYPSDIAVEWESNGQPENNYKTTPPVLDSDGSFFLYSRLTVDKSRWQEGNVFSCSVMHEALHNHYTQKSLSLSLGK
binds: [22]

GGGDPCTWEVWGRECLQGGGSGGSGG (peptide, not shown: large carriers) [phage displaying P190 on pIX (SEQ ID NO: 55)]
binds: [23] | [24]

GGGTDCVIFGLETYCLRGGGSGGSGG (peptide, not shown: large carriers) [phage clone P173 (SEQ ID NO: 31)]
binds: [11] | [25] | [12] | [24]

GGGMFCFRWYAGWSCVSGGGSGGSGG (peptide, not shown: large carriers) [phage clone P189 (SEQ ID NO: 54)]
binds: [26] | [25]

AGHFYPTKTPGYGG (peptide, not shown: large carriers) [phage clone P191 (SEQ ID NO: 56)]
binds: [24]

AGAASRALWAFNSDGG (peptide, not shown: large carriers) [phage clone P192 (SEQ ID NO: 57)]
binds: [24]

AGSYYWGYTVDIRRGG (peptide, not shown: large carriers) [phage clone P193 (SEQ ID NO: 58)]
binds: [25] | [24]

AGSECFPLAPDWLSCILGG (peptide, not shown: large carriers) [phage clone P194 (SEQ ID NO: 59)]
binds: [26] | [25]
